# Record: PubChem BioAssay AID493246 (Drosophila RNAi Screening Center, 2011)
# Assay: 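Genes fly cells need to grow and stay alive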 (primary screen)
# Cell system: Drosophila Kc and S2R+ cells
# Knock-down reagent: long dsRNA against Drosophila genes
# Detection: 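Raw, unnormalised count of remaining cells in each well; per-plate z-scores of cell number underlie the calls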
# Direction: Kc cell number and S2R+ cell number: higher = more cells remaining
# Active means: 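Active when the per-plate z-score of cell number is 3 or more in the direction of fewer cells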
# The screen tested about 21,000 reagents; below is an unselected part of those that have a named target and a result. In the full data, 429 (2%) are marked active. 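Values are raw and not normalised between plates; calls rest on per-plate z-scores that were not deposited.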 A plus sign joins genes that one reagent is predicted to hit. Not given: the amount of reagent, the time to read-out.
predicted target,dsRNA,"Kc cell number, rep 1","Kc cell number, rep 2","S2R+ cell number, rep 1","S2R+ cell number, rep 2",call
CG12567 (GeneID 3355094),DRSC20845,1.69e6,1.69e6,1.13e6,1.30e6,inactive
CG16727 (GeneID 42338),DRSC15139,1.26e6,1.23e6,1.06e6,1.16e6,inactive
Obp44a (GeneID 35789),DRSC06838,1.46e6,1.58e6,1.22e6,1.32e6,inactive
MED22 (GeneID 31038),DRSC18175,1.62e6,1.68e6,1.01e6,1.09e6,inactive
nAChRalpha6 (GeneID 34304),DRSC01096,1.45e6,1.57e6,9.80e5,1.13e6,inactive
nAChRalpha6 (GeneID 34304),DRSC02738,1.48e6,1.42e6,1.11e6,1.19e6,inactive
CG11843 (GeneID 43432),DRSC14401,1.52e6,1.56e6,1.11e6,1.22e6,inactive
CG9132 (GeneID 2768881),DRSC20159,1.64e6,1.73e6,1.02e6,1.16e6,inactive
CG42843 (retired record) (GeneID 10178904),DRSC01118,1.40e6,1.51e6,1.02e6,1.11e6,inactive
CG42843 (retired record) (GeneID 10178904),DRSC02231,1.68e6,1.67e6,1.14e6,1.22e6,inactive
CG42843 (retired record) (GeneID 10178904),DRSC02233,1.49e6,1.55e6,1.18e6,1.27e6,inactive
B9d1 (GeneID 41888),DRSC14993,1.52e6,1.52e6,1.15e6,1.33e6,inactive
CG16854 (GeneID 34539),DRSC02536,1.54e6,1.61e6,1.22e6,1.30e6,inactive
CG8180 (GeneID 36713),DRSC07092,1.35e6,1.39e6,1.03e6,1.05e6,inactive
CG8180 (GeneID 36713),DRSC07093,1.59e6,1.70e6,1.38e6,1.56e6,inactive
Cyp6v1 (GeneID 33056),DRSC20565,1.56e6,1.55e6,9.99e5,1.02e6,inactive
H2.0 (GeneID 33841),DRSC03340,1.48e6,1.53e6,1.04e6,1.12e6,inactive
Prosbeta5R1 (GeneID 37690),DRSC04581,1.70e6,1.58e6,1.41e6,1.49e6,inactive
CG13631 (GeneID 50073),DRSC14632,1.62e6,1.75e6,1.14e6,1.25e6,inactive
CG7365 (GeneID 40200),DRSC10824,1.72e6,1.75e6,1.38e6,1.37e6,inactive
Bub3 (GeneID 43490),DRSC14168,5.21e5,,6.78e5,,inactive
CG13675 (GeneID 38907),DRSC08908,1.41e6,1.40e6,8.81e5,1.00e6,inactive
CG13675 (GeneID 38907),DRSC10034,1.02e6,1.05e6,6.08e5,7.02e5,active
Or85c (GeneID 41008),DRSC16766,1.68e6,1.94e6,1.23e6,1.37e6,inactive
PGAP2 (GeneID 33258),DRSC00632,1.00e6,1.22e6,5.47e5,7.59e5,inactive
CG32269 + CG32270,DRSC08195,1.51e6,1.26e6,9.89e5,1.22e6,inactive
CG10597 (GeneID 32714),DRSC19357,1.35e6,1.39e6,9.51e5,1.12e6,inactive
CG15753 (retired record) (GeneID 32306),DRSC19718,8.98e5,9.00e5,5.09e5,6.32e5,active
CG3420 (GeneID 35585),DRSC04995,1.60e6,1.62e6,1.37e6,1.59e6,inactive
Gyg (GeneID 37419),DRSC03850,3.94e5,,6.29e5,,active
Gyg (GeneID 37419),DRSC04556,1.54e6,1.53e6,1.27e6,3.00e5,inactive
CG7668 (GeneID 40190),DRSC10901,1.55e6,1.58e6,1.31e6,1.34e6,inactive
GatC + PolG2,DRSC03312,1.24e6,1.39e6,1.20e6,1.27e6,inactive
rumpel (GeneID 31674),DRSC18436,1.54e6,1.53e6,1.13e6,1.27e6,inactive
S-Lap7 (GeneID 36524),DRSC06374,1.57e6,1.52e6,1.13e6,1.29e6,inactive
msl-1 (GeneID 35121),DRSC03573,1.63e6,1.65e6,1.20e6,3.25e5,inactive
CG32767 (GeneID 31430),DRSC18386,1.75e6,1.89e6,1.11e6,1.29e6,inactive
Tango8 (GeneID 50210),DRSC06474,1.44e6,1.52e6,8.80e5,9.97e5,inactive
hop (GeneID 32080),DRSC20340,1.49e6,1.44e6,9.98e5,1.12e6,inactive
CG34328 (GeneID 5740378),DRSC19256,1.44e6,1.75e6,1.18e6,1.26e6,inactive
Cluap1 (GeneID 33142),DRSC20637,1.45e6,1.50e6,1.02e6,1.13e6,inactive
alpha-Est1 (GeneID 40909),DRSC12612,1.64e6,1.68e6,1.25e6,1.27e6,inactive
mEFTs (GeneID 35060),DRSC02953,1.20e6,1.37e6,1.17e6,1.16e6,inactive
CG32452 (GeneID 318035),DRSC11581,1.70e6,1.73e6,1.09e6,1.35e6,inactive
CG9452 (GeneID 40119),DRSC11075,1.22e6,1.37e6,1.26e6,1.34e6,inactive
CG18294 (GeneID 40115),DRSC09891,1.29e6,1.43e6,1.24e6,1.27e6,inactive
Yp3 (GeneID 32339),DRSC20302,1.57e6,1.59e6,1.02e6,1.15e6,inactive
Alg3 (GeneID 37754),DRSC04700,1.23e6,1.28e6,1.06e6,1.18e6,inactive
magu (GeneID 36048),DRSC06832,1.26e6,1.35e6,1.16e6,1.22e6,inactive
Cpr66Cb (GeneID 38940),DRSC10769,1.58e6,1.47e6,9.93e5,1.15e6,inactive
CG14817 (GeneID 31145),DRSC18547,1.56e6,1.55e6,9.49e5,1.08e6,inactive
peng (GeneID 33112),DRSC20583,1.48e6,1.49e6,9.89e5,1.12e6,inactive
PPYR1 (GeneID 32453),DRSC19612,1.60e6,1.61e6,1.02e6,1.11e6,inactive
ProRS-m (GeneID 38331),DRSC08261,1.45e6,1.09e6,1.12e6,1.30e6,inactive
lbk (GeneID 36788),DRSC07178,1.41e6,1.41e6,1.25e6,1.27e6,inactive
CG30458 (GeneID 246624),DRSC06660,1.64e6,1.68e6,1.13e6,1.28e6,inactive
CG9988 (GeneID 43388),DRSC16587,1.58e6,1.57e6,1.06e6,1.14e6,inactive
shn (GeneID 36171),DRSC05266,1.42e6,1.41e6,9.94e5,1.15e6,inactive
shn (GeneID 36171),DRSC07681,1.31e6,1.43e6,9.36e5,9.93e5,inactive
